# Data from PMC8005662.
# Protein sequences, listed by entry. Tags and fused reporters are not part of them.
# UniProt P16220: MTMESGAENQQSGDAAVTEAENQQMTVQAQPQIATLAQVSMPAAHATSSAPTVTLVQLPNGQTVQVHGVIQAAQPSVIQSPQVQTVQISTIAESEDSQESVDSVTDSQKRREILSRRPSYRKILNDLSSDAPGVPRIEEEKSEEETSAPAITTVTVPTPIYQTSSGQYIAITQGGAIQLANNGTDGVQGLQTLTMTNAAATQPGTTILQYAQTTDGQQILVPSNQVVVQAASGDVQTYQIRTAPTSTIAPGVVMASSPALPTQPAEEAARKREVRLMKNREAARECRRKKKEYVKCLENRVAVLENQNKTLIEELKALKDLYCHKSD
# Results are given in words; binding and its absence hold for the method and conditions named. Binding seen in cells or lysates may run through a third protein. Some results given as binding are weak or reduced against the parent protein; the word gives no strength.
# Target: cAMP response element-binding protein (CREB) (human (endogenous in HUVECs)) (UniProt P16220)
# Test: co-IP; endogenous IP from HUVEC whole-cell lysate; 30 ul lysate with primary antibodies and 50 ul protein A/G Dynabeads, 4 °C, 12 h; input, IgG and IP fractions analysed by western blotting
binder,measurement,value
"lysine methyltransferase 5A (KMT5A) (protein, UniProt Q9NQR1 1-393) MGEGGAAAALVAAAAAAAAAAAAVVAGQRRRRLGRRARCHGPGRAAGGKMSKPCAVEAAAAAVAATAPGPEMVERRGPGRPRTDGENVFTGQSKIYSYMSPNKCSGMRFPLQEENSVTHHEVKCQGKPLAGIYRKREEKRNAGNAVRSAMKSEEQKIKDARKGPLVPFPNQKSEAAEPPKTPPSSCDSTNAAIAKQALKKPIKGKQAPRKKAQGKTQQNRKLTDFYPVRRSSRKSKAELQSEERKRIDELIESGKEEGMKIDLIDGKGRGVIATKQFSRGDFVVEYHGDLIEITDAKKREALYAQDPSTGCYMYYFQYLSKTYCVDATRETNRLGRLINHSKCGNCQTKLHDIDGVPHLILIASRDIAAGEELLYDYGDRSKASIEAHPWLKH",binding,binds
